{"sequences": {"note": "Sequences of proteins named here, by UniProt entry; tags and fusion partners are left off. Residues count along the entry.", "UniProt Q0QWG9, 805-1203": "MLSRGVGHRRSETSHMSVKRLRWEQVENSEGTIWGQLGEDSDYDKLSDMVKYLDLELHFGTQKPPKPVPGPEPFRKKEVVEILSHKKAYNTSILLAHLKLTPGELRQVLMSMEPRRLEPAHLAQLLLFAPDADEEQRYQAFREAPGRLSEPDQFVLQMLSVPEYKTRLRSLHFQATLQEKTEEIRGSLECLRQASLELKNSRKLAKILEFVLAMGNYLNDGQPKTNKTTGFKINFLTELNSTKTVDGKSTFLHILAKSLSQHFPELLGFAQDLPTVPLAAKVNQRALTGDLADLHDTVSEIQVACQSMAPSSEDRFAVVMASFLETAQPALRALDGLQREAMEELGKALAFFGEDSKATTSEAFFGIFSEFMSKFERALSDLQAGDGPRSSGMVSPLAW"}, "source": "paper doi:10.1101/151191", "target": "mDelFC (mouse Delphilin FH2 domain through to the C-terminus) (mouse) (UniProt Q0QWG9)", "assay": "SEC", "note": "No constants are given. Whether binding was seen depends on the method and setting.", "data": [{"substance": "α-mDelNT (N-terminal half of mouse α-Delphilin) (from UniProt Q0QWG9-2 1-558) (domain or fragment)", "values": [{"measurement": "binding", "result": "no binding"}]}]}
